Experimental data as given in patent US10745663B2, “Methods for modulating production profiles of recombinant proteins” (ARES TRADING S.A., priority 2015, dated 2020).

Tested on: CHO-K1 cells expressing IgG1 mAb2
Format: cell-based, Chinese hamster
Protocol: Assays were performed with 2 CHO cell lines: • CHO-S cells expressing IgG1 mAb1, herein “Cells mAb1” or “mAb1 cells”. “mAb1” is a fully human monoclonal antibody directed against a soluble protein. Its isoelectric point (pI) is about 8.20-8.30. • CHO-K1 cells expressing IgG1 mAb2, herein “Cells mAb2” or “mAb2 cells”. “mAb2” is a humanised monoclonal antibody directed against a receptor found on the cell membrane. Its isoelectric point (pI) is about 9.30.
Cells expressing mAb2 were inoculated at 0.2×10^6 cells per milliliter (mL), whereas cells expressing mAb1 were inoculated at 0.3×10^6 cells per mL.
All assays were performed in fed-batch culture. The host cells were cultured in fed-batch system either in microplates (“Deep well plate”) or in Spin Tubes®, and incubated at 36.5° C., 90% relative humidity, 5% CO2 and 320 rpm shaking during 14 days.
Viable cell density and viability were measured with the Guava easyCyte® flow cytometer or with the ViCell.
Antibody titres were measured either with the fortéBIO Octet® or with Biacore C®.
Glycosylation profiles were established by capillary gel electrophoresis with laser-induced fluorescence (CGE-LIF). Dosages of aggregates and fragments were performed respectively via Size Exclusion High Performance Liquid Chromatography (SE-HPLC) and via SDS-capillary gel electrophoresis. […]

SMILES: O=S(=O)([O-])c1cc(N=C=S)ccc1/C=C/c1ccc(N=C=S)cc1S(=O)(=O)[O-].[Na+].[Na+] [DIDS, 4,4′-diisothiocyanostilbene-2,2′-disulfonic acid]
- glycosylation profile of the antibody mAb2 (Spin tubes, CGE-LIF): did not vary
- percentage of fragments and aggregates (mAb2, Spin tubes, SE-HPLC and SDS-capillary gel electrophoresis): slightly decreased
